Among all 400,000 compounds or so, about 13,000 (3.2%) were called active. Inconclusive results, whose numbers are uncertain, are shown with a selection of clear calls. Calls follow the shape of the dose curve; as a rule, active = well fitted cell-killing curve with a large enough effect; inconclusive = small, poorly fitted or top-dose-only effect, or effect the other way; inactive = flat fitted curve, though single readings scatter. Potencies of inconclusive entries are doubtful fits and often do not repeat.
Assay: qHTS assay for MDR1-selective chemotherapeutics: Primary screen using the drug-selected MDR subline cells KB-V1; also: nearly all actives have a fitted effect of over 60% in size
Conditions: KB-V1 MDR cells viability, CellTiter-Glo, 72 h; activity change, negative = cytotoxicity: at 46.1 µM (top of the series)
How it was run: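 Readout: CellTiter-Glo luminescence, 10 min after addition. Cells: KB-V1 MDR subline, 72 h at 37 degrees C with compound. Analysis: corrected, normalized data fitted to concentration-effect curves.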
In the case of `CCN(CC)CCCN1CC(=O)N2[C@@H](Cc3c([nH]c4ccccc34)C2(C)C)C1=O`, the Potency is reported as inconclusive: 23.1 µM [rising, partial curve, poor fit].
In the case of `Cc1nnc(SCc2cc(=O)[nH]c(/N=C(\N)Nc3ccccc3)n2)s1`, the Potency is reported as inconclusive: 20.6 µM [rising, single point].
For `Clc1ccc(CSc2nc3ccncc3[nH]2)cc1`, the “activity change, negative = cytotoxicity” value was inactive: 17.9%.
For `N[C@@H](Cc1ccccc1)c1nnc2sc(SCc3ccccc3)nn12`, the Potency was inconclusive: 29.1 µM [cytotoxic, single point].
With `Nc1c(-c2nc(-c3ccc(Cl)cc3)cs2)c2ccccn2c1C(=O)c1ccc2c(c1)OCO2` the “activity change, negative = cytotoxicity” value was inactive: -2.67%.
With `CC1(C)CN(C2CCCCC2)C(=O)[C@H]1CC(=O)Nc1ccccc1` the Potency was inconclusive: 29.1 µM [rising, single point].
In the case of `OC(c1ccccc1)(c1nc(-c2cccc(C(F)(F)F)c2)cs1)C(F)(F)F` (stereo unspecified), the Potency is reported as inconclusive: 20.6 µM [rising, single point].
In the case of `CS(=O)(=O)Nc1cccc(NC(=O)C2Cc3c(-c4cccc(F)c4)ccnc3O2)c1` (stereo unspecified), the Potency is reported as inconclusive: 11.6 µM [cytotoxic, partial curve, poor fit].
In the case of `COC(=O)c1ccc(C(=O)NC2CCCc3c2cnn3-c2cc(F)cc(F)c2)nc1` (stereo unspecified), the Potency is reported as active: 10.3 µM.
For `CCCCc1nc2ccccc2n2c(-c3ccc(C)cc3)c3c(=O)n(C)c(=O)n(C)c3c12`, the “activity change, negative = cytotoxicity” value was inactive: 7.95%.
With `CC(C)c1ccc(O)c(NC(=O)c2cncc(Br)c2)c1` the Potency was inconclusive: 0.794 µM [cytotoxic, partial curve].
In the case of `CC(=O)Nc1ccc(N(CC(=O)NC2CCCCC2)C(=O)Cn2nnc(-c3ccccc3)n2)cc1`, the activity change, negative = cytotoxicity is reported as inconclusive: 16.6%.
For `NC(=O)c1ccc(NC(=O)c2ccc3c(c2)CCN3S(=O)(=O)c2ccccc2)cc1`, the Potency was inconclusive: 29.1 µM [rising, single point].
In the case of `Cc1ccc(CNc2ncnc3cc(Cl)ccc23)cc1`, the “activity change, negative = cytotoxicity” value is reported as inactive: -18.2%.
For `CC(C)C(NC(=O)c1c(F)cccc1F)C(=O)N1CCN(c2ccccc2F)CC1` (stereo unspecified), the “activity change, negative = cytotoxicity” value was inactive: -10.2%.
For `COc1ccccc1C1(O)CCN(C(=O)c2cccs2)CC1`, the Potency was active: 20.6 µM.
In the case of `Cc1cc(-c2csc(NC(=O)c3ccccc3C(F)(F)F)n2)c(C)n1Cc1ccccc1`, the Potency is reported as inconclusive: 7.31 µM [cytotoxic, partial curve].
For `CCOCc1cnc(C)nc1NCC(=O)c1c(C)[nH]c2ccccc12`, the “activity change, negative = cytotoxicity” value was inactive: 2.74%.
In the case of `CC1=C(c2ccccc2)C(O)(c2ccccc2)C(C)C1=O` (stereo unspecified), the Potency is reported as inconclusive: 18.4 µM [cytotoxic, partial curve, poor fit].
In the case of `COc1ccc(S(=O)(=O)c2ccccc2)cc1NS(=O)(=O)c1cccc(C(=O)O)c1`, the Potency is reported as inconclusive: 29.1 µM [rising, single point].
In the case of `Cc1ccc(C(=O)NS(=O)(=O)c2ccccc2)cc1`, the “activity change, negative = cytotoxicity” value is reported as inactive: -2.13%.
With `Cc1ccc(-n2nc3c(=O)n(CCCC(=O)NCc4ccccc4Cl)nc(C)c3c2C)cc1` the “activity change, negative = cytotoxicity” value was inactive: -2.78%.
With `O=C(Cc1ccc(OCC2CCCCC2)cc1)NO` the Potency was inconclusive: 29.1 µM [rising, single point].
In the case of `O=C(CC[C@H]1O[C@@H](n2ccc(=O)[nH]c2=O)[C@H](O)[C@@H]1O)N[C@@H](Cc1ccccc1)C(=O)NCC1CCCCC1`, the “activity change, negative = cytotoxicity” value is reported as inactive: 0%.
In the case of `CSc1cccc(NC(=O)CN(c2ccccc2)S(=O)(=O)N(C)C)c1`, the Potency is reported as inconclusive: 14.6 µM [cytotoxic, single point].
For `O=C1c2ccccc2-n2c1nc1ccccc1c2=O`, the Potency was inconclusive: 18.4 µM [cytotoxic, single point].
For `COc1ccc(CC(N)c2csc(NC(=O)Nc3ccccc3-c3ccccc3)n2)cc1` (stereo unspecified), the Potency was inconclusive: 29.1 µM [cytotoxic, single point].
For `Cc1cc(N2CCCCC2)nc2ccc(NC(=O)c3cccc(F)c3)cc12`, the Potency was inconclusive: 29.1 µM [cytotoxic, single point].
With `Cc1nn(C)c(C)c1CNC(=O)/C=C/c1ccccc1F` the Potency was active: 18.4 µM.
With `O=C1CN(C(=O)Cn2ncc(Cl)c(Cl)c2=O)c2ccccc2N1` the Potency was inconclusive: 29.1 µM [cytotoxic, single point].
For `Cn1cccc1/C=C1\SC(=O)N(CC(=O)Nc2ccc(Cl)cc2)C1=O`, the Potency was inconclusive: 18.4 µM [cytotoxic, single point].
For `COc1cc2ccccc2cc1C(=O)OCc1nc2ccsc2c(=O)[nH]1`, the “activity change, negative = cytotoxicity” value was inactive: 26.8%.
For `Nc1ccc2c(C(F)(F)F)cc(C(F)(F)F)nc2n1`, the Potency was inconclusive: 23.1 µM [rising, single point].
For `Cn1c(=O)n(C)c2cc(NS(=O)(=O)c3ccc(Br)cc3)c(NCc3ccccc3)cc21`, the Potency was inconclusive: 29.1 µM [cytotoxic, single point].
With `Cc1cc(C)n(C(=O)CNC(=O)c2ccc(C(C)(C)C)cc2)n1` the Potency was inconclusive: 29.1 µM [rising, single point].
With `NC(c1ccccc1)c1csc(NC(=O)Nc2cccc(C(F)(F)F)c2)n1` (stereo unspecified) the Potency was inconclusive: 23.1 µM [cytotoxic, single point].
With `Cc1cc(C)c(S(=O)(=O)N2CCN(C(=O)CCn3nc(C)c(C)c3C)CC2)c(C)c1` the Potency was inconclusive: 5.8 µM [cytotoxic, partial curve].
With `COc1cccc(-c2nc3nc(C)cc(C)n3c2Nc2c(C)cccc2C)c1` the Potency was inconclusive: 5.8 µM [cytotoxic, partial curve].
With `O=C(c1ccccc1)N1CCN(c2cc(-c3ccccc3)nc3cc(-c4cccc(Cl)c4)nn23)CC1` the “activity change, negative = cytotoxicity” value was inactive: -14.3%.
In the case of `Clc1ccc(Cn2ncc3c(N4CCOCC4)ncnc32)cc1`, the Potency is reported as inconclusive: 23.1 µM [cytotoxic, partial curve].
For `CCOc1ccc(-n2c(=O)c3c(C)c(C)sc3n(CC(=O)c3ccccc3)c2=O)cc1`, the “activity change, negative = cytotoxicity” value was inactive: 0%.
In the case of `CCCC(=O)NC(c1ccc2c(c1)OCO2)c1cc(Cl)c2cccnc2c1O` (stereo unspecified), the Potency is reported as inconclusive: 1.46 µM [cytotoxic, partial curve, poor fit].
With `Cc1ccc2c(c1)-c1c(ssc1=S)C(C)(C)N2C(=O)CSc1nncn1C` the Potency was inconclusive: 20.6 µM [cytotoxic, partial curve, poor fit].
With `CN(CCOc1ccccc1)C(=O)c1ccc(OC2CCN(C(=O)C3CC3)CC2)cc1` the Potency was inconclusive: 25.9 µM [cytotoxic, partial curve, poor fit].
For `C=CCOc1cccn2c(N(C=O)Cc3ccc(OC)cc3)c(CC)nc12`, the Potency was inconclusive: 9.2 µM [cytotoxic, partial curve].
For `COc1ccc(CCN(C)C(=O)/C=C/c2c(Cl)nc3ccccn23)cc1OC`, the Potency was inconclusive: 29.1 µM [cytotoxic, single point].
In the case of `Cc1ccc(C(=O)NCCC2=CCCCC2)cc1S(=O)(=O)N1CCOCC1`, the Potency is reported as inconclusive: 9.2 µM [cytotoxic, partial curve].
With `CCn1c(=O)n(CC)c2cc(N3CCCC3)c(NC(=O)c3cc(Br)ccc3OC)cc21` the Potency was inconclusive: 29.1 µM [cytotoxic, single point].
For `Cc1csc(NC(=O)CSc2nc3[nH]c(=O)cc(O)c3s2)n1`, the Potency was active: 20.6 µM.
In the case of `Cc1ccc(C)c(C(=O)CCC(=O)Nc2ccc(N3CCN(C)CC3)cc2C)c1`, the Potency is reported as inconclusive: 29.1 µM [rising, single point].
For `Fc1ccccc1/C=C/c1ccc2ccccc2n1`, the Potency was inconclusive: 18.4 µM [cytotoxic, single point].
In the case of `CC1CC(C)CN(c2nc(NCc3ccco3)nc(N)c2[N+](=O)[O-])C1` (stereo unspecified), the Potency is reported as inconclusive: 3.66 µM [cytotoxic, full curve, poor fit].
With `O=C(NNC(=O)C1CC(c2cccnc2)=NO1)Nc1ccccc1F` (stereo unspecified) the Potency was inconclusive: 13 µM [rising, partial curve, poor fit].
For `CC1(c2ccc3ccccc3c2)NC(=O)N(CC(=O)Nc2ncccc2O)C1=O` (stereo unspecified), the “activity change, negative = cytotoxicity” value was inactive: 4.57%.
With `C=CCOc1ccc2c(c1)c(S(=O)(=O)c1ccc(C)cc1)cn2COC` the Potency was inconclusive: 25.9 µM [cytotoxic, single point].
In the case of `CC1CCc2c(sc(NC(=O)CCCOc3ccc(C(C)(C)C)cc3)c2C(N)=O)C1` (stereo unspecified), the “activity change, negative = cytotoxicity” value is reported as inactive: 2.8%.
In the case of `COc1ccc(N(CC(=O)Nc2ccccc2C)S(=O)(=O)c2ccccc2[N+](=O)[O-])c(OC)c1`, the Potency is reported as inconclusive: 2.91 µM [cytotoxic, partial curve, poor fit].
For `COC(=O)c1cccc(-n2c(=O)n(Cc3ccccc3)c(=O)c3[nH]cnc32)c1C`, the Potency was inconclusive: 29.1 µM [rising, single point].
In the case of `CC(=O)Nc1ccc(S(=O)(=O)NCC(=O)N2CCN(S(=O)(=O)c3cccs3)CC2)cc1`, the Potency is reported as inconclusive: 13 µM [rising, partial curve, poor fit].
In the case of `Cc1cc(C(=O)NC2CCCc3c2cnn3-c2cccc(C)c2C)no1` (stereo unspecified), the Potency is reported as inconclusive: 14.6 µM [cytotoxic, partial curve, poor fit].
For `Cc1[nH]c2ccccc2c1/C=C/c1cc[n+](C)cc1`, the “activity change, negative = cytotoxicity” value was inactive: -1.08%.
With `Cc1cc(C)n2c(NCc3ccccc3)c(CC(C)C)nc2n1` the Potency was inconclusive: 20.6 µM [cytotoxic, partial curve, poor fit].
With `O=c1c2ccccc2nnn1CSc1nnc(-c2cccs2)n1Cc1ccccc1` the Potency was inconclusive: 25.9 µM [cytotoxic, partial curve, poor fit].
For `COCCCNCCCOc1ccc(Cl)cc1Br`, the “activity change, negative = cytotoxicity” value was inactive: -25.7%.
With `O=C(CSc1nnc2nnc3ccccc3n12)N1CCOCC1` the Potency was inconclusive: 0.0058 µM [cytotoxic, full curve].
In the case of `Cc1cccc(NC(=O)CSc2n[nH]c(-c3cccnc3)n2)c1`, the Potency is reported as inconclusive: 29.1 µM [rising, single point].

Source: PubChem BioAssay AID1347076 (National Center for Advancing Translational Sciences (NCATS), 2019)
% is scaled to controls: 0 for no effect and ±100 for the full control effect; potency is read from the fitted curve at half-maximal effect.
